In article PMC7819943, “Rice protein-binding microarrays: a tool to detect cis-acting elements near promoter regions in rice” one finds binding signal data, which are given here for 54 sequences.

The list shows a part of the results.

In the experiment the target is T1, OsSMF1 (Oryza sativa, UniProt Q6ZLB0 1-436).
T1 sequence: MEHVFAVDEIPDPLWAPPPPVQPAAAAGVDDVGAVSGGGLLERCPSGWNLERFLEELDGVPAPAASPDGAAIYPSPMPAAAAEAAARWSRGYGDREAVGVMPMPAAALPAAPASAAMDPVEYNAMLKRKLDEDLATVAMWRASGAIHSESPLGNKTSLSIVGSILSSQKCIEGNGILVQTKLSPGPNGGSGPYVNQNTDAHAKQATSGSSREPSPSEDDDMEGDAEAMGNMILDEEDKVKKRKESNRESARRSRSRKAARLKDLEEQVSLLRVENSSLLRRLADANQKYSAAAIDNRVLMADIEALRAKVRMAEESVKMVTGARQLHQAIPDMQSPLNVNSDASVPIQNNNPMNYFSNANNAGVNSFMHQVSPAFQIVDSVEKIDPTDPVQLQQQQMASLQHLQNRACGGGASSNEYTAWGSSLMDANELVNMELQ
In words: protein-binding microarray (RPBM); PBS, 2% BSA, 51.3 ng/ul salmon testes DNA, 50 uM zinc acetate, 200 nM TF, 25 C, 1 h; high values mean tight binding. Conditions: protein: recombinant; tags: N-terminal polyhistidine and DsRed monomer fusion (pET32a); chain copies: 2; label: CyDye5-dUTP incorporated in the synthesized complementary strand; 3' TTTTT single-stranded linker to array surface; dsDNA, one strand shown. In a few lines:
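Binding signal here means per-feature fluorescence intensity in arbitrary units. The values were read on an Axon 4000B scanner after a custom Agilent array, double-stranded by primer extension with Cy5-dUTP, was incubated with 200 nM protein at 25 °C for 1 h in PBS with 2% BSA, salmon testes DNA and 50 µM zinc acetate, then washed. The proteins were transcription factors with an N-terminal polyhistidine tag and DsRed, expressed in E. coli BL21-CodonPlus and purified on Ni–NTA.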
For “CGGATCCATCCATCTCCCCAATCCCCTGTAACACCCGTACCGGAGTCACCTAGTGCAG”, the binding signal is 3170 fluorescence intensity (a.u.).

As to “GAGATCTGGTTGGTTCGTGTCACTGCCAATGTGGCAAATACGGAGTCACCTAGTGCAG”, the binding signal is 7660 fluorescence intensity (a.u.).

On to “ACGTCCCCGCCACGCAAGCGCCCATCCACCCGTCCATCCCCGGAGTCACCTAGTGCAG”, for which the binding signal was 17300 fluorescence intensity (a.u.).

In the case of “CAAGCAATACCTATTTCCTGCACATGTCATCACCTCTTTTCGGAGTCACCTAGTGCAG”, the binding signal is 6300 fluorescence intensity (a.u.).

As for “TCAGATAAAATCAGGGACAATACATAAAGGAAGGAATCTTCGGAGTCACCTAGTGCAG”, the binding signal was 29400 fluorescence intensity (a.u.).

On to “TGGATTAGGAATCAACGGCAGAGATGATGCAAGGGAGTTTCGGAGTCACCTAGTGCAG”, for which the binding signal was 3330 fluorescence intensity (a.u.).

Turning to “CGCTTTATCTTTTCATACGAATGATGTGTCGACGTTATCTCGGAGTCACCTAGTGCAG”, the binding signal was 3500 fluorescence intensity (a.u.).

On to “ATTTAAATTATGGCTTTAGTGCCACGCTGTACTGTAGTAGCGGAGTCACCTAGTGCAG”, for which the binding signal was 5480 fluorescence intensity (a.u.).

With “GTGCGGCTAAACGTTCCACCGCCACAGCTGACACGATCGTCGGAGTCACCTAGTGCAG”, the binding signal was 3640 fluorescence intensity (a.u.).

In the case of “GCACCAGCTAGACGCGGAGTCCGCGTGTCGAGCAGACGAGCGGAGTCACCTAGTGCAG”, the binding signal is 3890 fluorescence intensity (a.u.).

Consider “TCGATCGGCTTCACGCACGCCCAGCACTATATAACCAGCTCGGAGTCACCTAGTGCAG”, for which the binding signal is 4310 fluorescence intensity (a.u.).

Take “GGTTTTGGAGGGCGGTTTCGCTGATGTGGCGGTGTTGACTCGGAGTCACCTAGTGCAG”: the binding signal is 14200 fluorescence intensity (a.u.).

For the sequence “TGCTTCTTCTCGCTCCGAACAGGGAGGACGGTGACGCGGTCGGAGTCACCTAGTGCAG”, the binding signal was 3500 fluorescence intensity (a.u.).

Consider “TGCGGATCTAACATGCGGGCCCGACTGTCTGCTGCTTCACCGGAGTCACCTAGTGCAG”, for which the binding signal is 3290 fluorescence intensity (a.u.).

For the sequence “CTACACGCCGCCCGCCAGCTCAGTTCACCGGATCCCCGGGCGGAGTCACCTAGTGCAG”, the binding signal was 4200 fluorescence intensity (a.u.).

Turning to “CAAATTAGCCACGTAAGTGCCACTTCAGCTGAAATGATAGCGGAGTCACCTAGTGCAG”, the binding signal was 9580 fluorescence intensity (a.u.).

Regarding “TAGGTTAATTTTCGTGTCAGATCAAACTCAGCGCTCCGTTCGGAGTCACCTAGTGCAG”, the binding signal was 4360 fluorescence intensity (a.u.).

“GATCGGATCGGATTAGCCGCGCTATAGCGTCAGGGGATCACGGAGTCACCTAGTGCAG”: the binding signal is 3210 fluorescence intensity (a.u.).

Take “CGCACCGTTGCAGCCCGCCCACTCGCTGACTCGCTCCAGCCGGAGTCACCTAGTGCAG”: the binding signal is 4160 fluorescence intensity (a.u.).

“GGGGAAGGAGAAGAGGAAGGAGAGGGGAGGAGGAGGAGGGCGGAGTCACCTAGTGCAG”: the binding signal is 3770 fluorescence intensity (a.u.).

“ACTAGGCCAACCTGACACGACGCACAAGACAAAACCTTCGCGGAGTCACCTAGTGCAG”: the binding signal is 3620 fluorescence intensity (a.u.).

“CCAGCCCCGCGCCGGCCGCCGTCCGTCCGCCCGCGCGCGGCGGAGTCACCTAGTGCAG”: the binding signal was 3540 fluorescence intensity (a.u.).

Take “AGGAGACCGATGGGGACATGGGGCGTGGCGGGAGAGGATTCGGAGTCACCTAGTGCAG”: the binding signal is 3240 fluorescence intensity (a.u.).

In the case of “GGGGCGAGGCGTGTGTCAGGCCGCCTGTTGCCACCTAACCCGGAGTCACCTAGTGCAG”, the binding signal is 4540 fluorescence intensity (a.u.).

Turning to “TATTAATTAAAATTAGATCTTCTCTTCTAGGCTTTTAAAACGGAGTCACCTAGTGCAG”, the binding signal was 30400 fluorescence intensity (a.u.).

Regarding “AAGGAAGGAAGGAGGAGGATGCTGACGTGGCGAAGCGCAACGGAGTCACCTAGTGCAG”, the binding signal is 20400 fluorescence intensity (a.u.).

For the sequence “TGAGGATGCAAGAGAATCCTAAAAGGTAAGGCAGCATGCACGGAGTCACCTAGTGCAG”, the binding signal is 44100 fluorescence intensity (a.u.).

Regarding “GCAACGTGACTCCACACTCTTTTGTTCGTTACCCATTCCACGGAGTCACCTAGTGCAG”, the binding signal was 3530 fluorescence intensity (a.u.).

As to “CCCGCCGACACGTTGGCCTCGCCCATCAGGTACACCACGCCGGAGTCACCTAGTGCAG”, the binding signal was 4010 fluorescence intensity (a.u.).

As to “CAGCTCACATTGCCACGTAAGCGCCATGTCAATGCCACATCGGAGTCACCTAGTGCAG”, the binding signal was 10200 fluorescence intensity (a.u.).

In the case of “TATCCATGGTGTTTAACAATATATCACTGGATACACGTGTCGGAGTCACCTAGTGCAG”, the binding signal is 9700 fluorescence intensity (a.u.).

“TTTTACGTCGTCCGATCCGTCCATTGCTCCATTGCTGACGCGGAGTCACCTAGTGCAG”: the binding signal was 4630 fluorescence intensity (a.u.).

On to “TGTTTCCTGCTAAAATTGACACGCACTTGATTTAGTGATTCGGAGTCACCTAGTGCAG”, for which the binding signal is 14300 fluorescence intensity (a.u.).

As for “TACCACTATCGGAAGTTTTGGTTGTGACGTCCACAATTCCCGGAGTCACCTAGTGCAG”, the binding signal was 3760 fluorescence intensity (a.u.).

For “CTCATGTCCCTTTATGCCATGCTGACAAGGCCTCCAAGGACGGAGTCACCTAGTGCAG”, the binding signal is 4280 fluorescence intensity (a.u.).

As to “CACATGTCAGTATGTCACGAGGCTCGTGACCCCAGGATGTCGGAGTCACCTAGTGCAG”, the binding signal was 3710 fluorescence intensity (a.u.).

On to “CGTGGCTGTCAAGGGCTCCACGTAAGCATCCCATAAGGCACGGAGTCACCTAGTGCAG”, for which the binding signal is 17200 fluorescence intensity (a.u.).

For the sequence “AGCAGACAGATCGTATGCCCCGTCATGGGTACAGAGAAGTCGGAGTCACCTAGTGCAG”, the binding signal is 6600 fluorescence intensity (a.u.).

In the case of “TCTGTGTGCAAAGAAAATGATGTCACTTTCTGTTTGTCCACGGAGTCACCTAGTGCAG”, the binding signal is 15900 fluorescence intensity (a.u.).

“ACACAAAGTGGGCTCCACCGGAGGGAGCGCCACGACGGCACGGAGTCACCTAGTGCAG”: the binding signal is 4540 fluorescence intensity (a.u.).

Consider “TAAGTGGTTCACCGCCATGTGTAAGTCAGATTATCCACATCGGAGTCACCTAGTGCAG”, for which the binding signal was 3550 fluorescence intensity (a.u.).

Regarding “GCGCCTCTACACCGCGCTCGTCATCCTTCCGCCGCCGCTCCGGAGTCACCTAGTGCAG”, the binding signal is 5300 fluorescence intensity (a.u.).

As to “CATAAAAGGTGGCATTGACTCACGAACCCTGCGACTGCGTCGGAGTCACCTAGTGCAG”, the binding signal was 5300 fluorescence intensity (a.u.).

On to “GGGGTACCGCAGCATGGACGACTACTACGATACGCTTGACCGGAGTCACCTAGTGCAG”, for which the binding signal is 31900 fluorescence intensity (a.u.).

With “TTTGCATCTGCATCTATTTGGACCGGTCCAGCCCATCTCACGGAGTCACCTAGTGCAG”, the binding signal is 3230 fluorescence intensity (a.u.).

Take “AGTTGAGCTCCTTGTCATTGATGAAGCTGCTGCTATTCCACGGAGTCACCTAGTGCAG”: the binding signal is 3740 fluorescence intensity (a.u.).

Consider “TTTAGAATACTGCTCATACGTCAGTAACAAAGTCACACGACGGAGTCACCTAGTGCAG”, for which the binding signal was 3880 fluorescence intensity (a.u.).

On to “TCTCGGCAGAAACTGTCACTGACATGTGGTCCCATTCTCTCGGAGTCACCTAGTGCAG”, for which the binding signal was 3170 fluorescence intensity (a.u.).

With “TGCAGCAGGAGATCGATCGATCGATCGATCCAACCGAATGCGGAGTCACCTAGTGCAG”, the binding signal was 3260 fluorescence intensity (a.u.).

Consider “TTTGGATACATGGAACGGGTGCATTGGGTTGCCTGCCTCACGGAGTCACCTAGTGCAG”, for which the binding signal was 4090 fluorescence intensity (a.u.).

Regarding “TGCTGCTCTCGCGCGCTGTGCGGTTGTCACACACACTTTTCGGAGTCACCTAGTGCAG”, the binding signal was 4080 fluorescence intensity (a.u.).

For the sequence “GCTGCTGCTGCTTGCTCTTGCTCTTGCTGCTGGGTGGAGTCGGAGTCACCTAGTGCAG”, the binding signal is 20400 fluorescence intensity (a.u.).

For “CTTAGGGTCGGGAAGGGGAGAGGCGGTGGCGGGCGGCTGACGGAGTCACCTAGTGCAG”, the binding signal is 3890 fluorescence intensity (a.u.).

Regarding “GACGACGACGTGGCCTCCATCTGCACCGTCGGTTGCCTCACGGAGTCACCTAGTGCAG”, the binding signal is 6420 fluorescence intensity (a.u.).
